{"source": "PubChem BioAssay AID504786 (Drosophila RNAi Screening Center, 2011)", "screen": "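Positive regulators of HIF-driven reporter output in Drosophila cells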 (primary screen)", "cells": "Drosophila S2 cells with a stable HIF luciferase reporter", "reagent": "long dsRNA against Drosophila genes, about 0.2 µg dsRNA per well of a 384-well plate", "timing": "three days of knock-down, then 20 h of DFO before reading", "treatment": "desferrioxamine (DFO) at 100 µM, an iron chelator that mimics hypoxia, for 20 h", "detection": "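HIF reporter luminescence in cells given 100 µM DFO for 20 h, using the mouse ldh-a hypoxia-response element, scored as per-plate z-scores; higher means greater loss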", "scale": "z-score: higher = stronger loss of HIF reporter signal", "note": "The deposit covers about 21,000 reagents; this is an unselected part of those that have a named target and a result. 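Primary screen; positive scores mean lost reporter signal, so the sign may be inverted from the usual convention.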 Reagents against one gene are numbered here. Names joined by + are all predicted targets of the reagent. Not all columns of the deposit are shown. Reagent sequences are not shown."}
{"Target gene":"Tbce","reagent no.":1,"z-score, replicate 1":-0.1}
{"Target gene":"MED18","reagent no.":1,"z-score, replicate 1":-0.4}
{"Target gene":"Polr3H","reagent no.":1,"z-score, replicate 1":-0.1}
{"Target gene":"CG6836","reagent no.":1,"z-score, replicate 1":-0.3}
{"Target gene":"Sxl + CG14425 (retired record)","reagent no.":1,"z-score, replicate 1":-0.4}
{"Target gene":"Sxl + CG14425 (retired record)","reagent no.":2,"z-score, replicate 1":-0.2}
{"Target gene":"Pka-C3","reagent no.":1,"z-score, replicate 1":-0.1}
{"Target gene":"Pka-C3","reagent no.":2,"z-score, replicate 1":-0.1}
{"Target gene":"CG13408","reagent no.":1,"z-score, replicate 1":0.1}
{"Target gene":"CG13408","reagent no.":2,"z-score, replicate 1":-0.4}
{"Target gene":"CIAPIN1","reagent no.":1,"z-score, replicate 1":-0.4}
{"Target gene":"DENR","reagent no.":1,"z-score, replicate 1":-0.1}
{"Target gene":"Dronc","reagent no.":1,"z-score, replicate 1":-0.2}
{"Target gene":"CG17328","reagent no.":1,"z-score, replicate 1":-0.2}
{"Target gene":"CG33110","reagent no.":1,"z-score, replicate 1":3.5}
{"Target gene":"CG33110","reagent no.":2,"z-score, replicate 1":0.1}
{"Target gene":"Trxr1","reagent no.":1,"z-score, replicate 1":-0.4}
{"Target gene":"Vps28","reagent no.":1,"z-score, replicate 1":-0.1}

Next part (4 carried over from the part before).
{"Target gene":"CG33110","reagent no.":1,"z-score, replicate 1":3.5}
{"Target gene":"CG33110","reagent no.":2,"z-score, replicate 1":0.1}
{"Target gene":"Trxr1","reagent no.":1,"z-score, replicate 1":-0.4}
{"Target gene":"Vps28","reagent no.":1,"z-score, replicate 1":-0.1}
{"Target gene":"CG7565","reagent no.":1,"z-score, replicate 1":-0.3}
{"Target gene":"Nox","reagent no.":1,"z-score, replicate 1":-0.3}
{"Target gene":"Nox","reagent no.":2,"z-score, replicate 1":-0.2}
{"Target gene":"phtf","reagent no.":1,"z-score, replicate 1":0}
{"Target gene":"CG14410","reagent no.":1,"z-score, replicate 1":-0.4}
{"Target gene":"Dbct","reagent no.":1,"z-score, replicate 1":-0.4}
{"Target gene":"CG8531","reagent no.":1,"z-score, replicate 1":-0.3}
{"Target gene":"CG31835 + CG42585","reagent no.":1,"z-score, replicate 1":0.3}
{"Target gene":"CG15344 (retired record)","reagent no.":1,"z-score, replicate 1":-0.3}
{"Target gene":"CG12655","reagent no.":1,"z-score, replicate 1":-0.3}
{"Target gene":"Ugt317A1","reagent no.":1,"z-score, replicate 1":-0.4}
{"Target gene":"Snap25","reagent no.":1,"z-score, replicate 1":-0.2}
{"Target gene":"Snap25","reagent no.":2,"z-score, replicate 1":0.1}
{"Target gene":"ppk","reagent no.":1,"z-score, replicate 1":-0.3}
{"Target gene":"CG14598","reagent no.":1,"z-score, replicate 1":-0.1}
{"Target gene":"CG3598","reagent no.":1,"z-score, replicate 1":-0.3}
{"Target gene":"dsh","reagent no.":1,"z-score, replicate 1":-0.1}
{"Target gene":"disco-r","reagent no.":1,"z-score, replicate 1":-0.3}
{"Target gene":"disco-r","reagent no.":2,"z-score, replicate 1":-0.3}
{"Target gene":"ms(3)76Ba","reagent no.":1,"z-score, replicate 1":-0.2}
{"Target gene":"LTV1","reagent no.":1,"z-score, replicate 1":-0.2}
{"Target gene":"Syx18","reagent no.":1,"z-score, replicate 1":-0.3}
